# Measurements: PMC11671618
# Sequences of proteins named here, by UniProt entry; tags and fusion partners are left off.
# UniProt Q9UMX0: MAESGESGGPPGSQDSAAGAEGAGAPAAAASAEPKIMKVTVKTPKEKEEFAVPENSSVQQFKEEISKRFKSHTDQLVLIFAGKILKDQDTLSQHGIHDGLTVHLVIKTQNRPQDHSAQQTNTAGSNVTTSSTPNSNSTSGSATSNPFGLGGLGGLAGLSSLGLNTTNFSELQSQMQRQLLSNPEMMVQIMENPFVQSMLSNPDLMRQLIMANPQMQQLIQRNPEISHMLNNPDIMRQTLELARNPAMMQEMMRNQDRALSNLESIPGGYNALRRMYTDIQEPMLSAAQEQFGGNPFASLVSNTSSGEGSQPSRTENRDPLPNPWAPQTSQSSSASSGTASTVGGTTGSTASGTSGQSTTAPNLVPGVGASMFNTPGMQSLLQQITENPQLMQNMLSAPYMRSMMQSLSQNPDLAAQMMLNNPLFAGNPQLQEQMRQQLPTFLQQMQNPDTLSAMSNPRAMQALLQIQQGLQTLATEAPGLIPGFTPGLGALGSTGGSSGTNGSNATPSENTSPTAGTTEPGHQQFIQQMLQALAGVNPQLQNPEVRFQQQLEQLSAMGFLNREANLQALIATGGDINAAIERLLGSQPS
# Results are given in words; binding and its absence hold for the method and conditions named. In cells and extracts the contact can be indirect. Some results given as binding are weak or reduced against the parent protein; the word gives no strength. Sequences can lack the tags named with a protein.
# Target: T1, Beclin 2-Flag (UniProt A8MW95)
# T1 sequence: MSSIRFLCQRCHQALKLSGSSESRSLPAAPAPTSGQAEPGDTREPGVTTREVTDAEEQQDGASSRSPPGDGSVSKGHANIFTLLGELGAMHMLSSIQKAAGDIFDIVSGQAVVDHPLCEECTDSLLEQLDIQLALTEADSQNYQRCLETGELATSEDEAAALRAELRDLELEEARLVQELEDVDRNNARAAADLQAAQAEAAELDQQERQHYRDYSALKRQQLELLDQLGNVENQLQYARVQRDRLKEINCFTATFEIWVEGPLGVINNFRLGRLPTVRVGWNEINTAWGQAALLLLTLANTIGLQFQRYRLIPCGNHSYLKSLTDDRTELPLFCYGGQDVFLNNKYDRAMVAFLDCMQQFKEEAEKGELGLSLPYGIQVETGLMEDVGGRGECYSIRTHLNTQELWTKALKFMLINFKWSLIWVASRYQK
# Assay: co-IP; Co-IP and Western blot in MDA-MB-231 cells; Flag antibody or mouse IgG control, protein A/G magnetic beads, immunoblot
substance,measurement,value
Ubiquilin 1 (from UniProt Q9UMX0 1-589),binding,binds
